Laboratory results taken from patent EP0646792A1, “Use of amylin in pharmaceutical screens” (ELI LILLY AND COMPANY, priority 1993, dated 1995).
At least one peptide structure holds a part that was inferred or is arguable (an end, a ring closure or a residue). Ends that are not written are not given here.

Tests used:
rat hippocampal cultures [1] = test: Neurotoxicity assay measuring LDH released into the culture media of primary rat hippocampal cultures; type: cell-based; conditions: 4 days; for toxicity of full length human amylin and human amylin fragments: mature rat hippocampal cultures, 50 µM, LDH (Fig. 3, panel B)
[2] = reported by C.J. Pike, et al., Journal of Neurosciences, 13:1676-1687 (1993); cited from earlier work
rat hippocampal cultures [3] = test: Neurodegeneration in primary rat hippocampal cultures, assessed visually by phase contrast microscopy; type: cell-based
human cortical cultures = test: Neurotoxicity in primary human cortical cultures, viability by alamarBlue reduction; type: cell-based; conditions: three days
[4] = rat hippocampal cultures, LDH release

For SNNFGAILSS [human amylin(20-29)], the “toxicity of full length human amylin and human amylin fragments” value (rat hippocampal cultures [1]) is given as “No toxicity was observed” and the “neurotoxicity (literature report)” value [2] is given as “lack of neurotoxicity”.

In the case of CC[C@H](C)[C@H](NC(=O)[C@H](C)NC(=O)CNC(=O)[C@H](Cc1ccccc1)NC(=O)[C@H](CC(N)=O)NC(=O)[C@H](CC(N)=O)NC(=O)[C@H](CO)NC(=O)[C@H](CO)NC(=O)[C@H](Cc1c[nH]cn1)NC(=O)[C@@H](NC(=O)[C@H](CC(C)C)NC(=O)[C@H](Cc1ccccc1)NC(=O)[C@H](CC(N)=O)NC(=O)[C@H](C)NC(=O)[C@H](CC(C)C)NC(=O)[C@H](CCCNC(=N)N)NC(=O)[C@H](CCC(N)=O)NC(=O)[C@@H](NC(=O)[C@H](C)NC(=O)[C@@H]1CSSC[C@H](NC(=O)[C@@H](N)CCCCN)C(=O)N[C@@H](CC(N)=O)C(=O)N[C@@H]([C@@H](C)O)C(=O)N[C@@H](C)C(=O)N[C@@H]([C@@H](C)O)C(=O)N1)[C@@H](C)O)C(C)C)C(=O)N[C@@H](CC(C)C)C(=O)N[C@@H](CO)C(=O)N[C@@H](CO)C(=O)N[C@H](C(=O)N[C@@H](CC(N)=O)C(=O)N[C@H](C(=O)NCC(=O)N[C@@H](CO)C(=O)N[C@@H](CC(N)=O)C(=O)N[C@H](C(=O)N[C@@H](Cc1ccc(O)cc1)C(N)=O)[C@@H](C)O)C(C)C)[C@@H](C)O [human amylin], the “neurodegeneration, peptide from other or several sources” value (rat hippocampal cultures [3]; cultured rat hippocampal neurons, human amylin from Bachem, Peninsula and in-house, rat amylin from Peninsula Laboratories) is reported as “prominent neurodegeneration”, the “neurodegeneration (phase-contrast microscopy)” value (rat hippocampal cultures [3]; mature, high density rat hippocampal cultures, 50 µM peptide, 4 days (Fig. 2)) is reported as “prominent neurodegeneration” and the “toxicity of full length human amylin and human amylin fragments” value (rat hippocampal cultures [1]) is reported as “neurotoxic”. The “release of LDH into the culture media” value (rat hippocampal cultures [1]; rat hippocampal cultures (10 DIV), concentration series (Fig. 3, panel A)) was “concentration-dependent release of LDH”, the “concentration with detectable neurotoxicity” value (rat hippocampal cultures [1]; [4]) was 10 µM and the “potency relative to β-amyloid peptide” value (rat hippocampal cultures [1]; [4]) was “more potent than β-amyloid peptide”. The “concentration with detectable neurotoxicity” value (human cortical cultures; human cortical cultures) was 3 µM, the “potency relative to β-amyloid peptide” value (human cortical cultures; human cortical cultures) was “more potent than β-amyloid peptide” and the neurodegeneration (human cortical cultures; mature, high density human cortical cultures, human amylin 12.5-50 µM, β-amyloid peptide 25-100 µM (Figure 4)) was “complete neurodegeneration”.
